Fewer than 10 of roughly 6,900 compounds were called active. Calls come from the whole dose curve; as a rule, active = well fitted curve in the direction sought with a large enough effect; inconclusive = small, poorly fitted or top-dose-only effect, or another doubt; inactive = no such curve, though single readings can be large or run the other way. The list shows a part of the results.
What follows are compounds tested against Metallo-beta-lactamase type 2 (Klebsiella pneumoniae) (UniProt C7C422) (assay: qHTS to identify inhibitors of the New Delhi Metallo-beta-lactamase (NDM): primary screen against the NCATS Gemini Collection). Conditions: NDM-1 enzyme, meropenem hydrolysis, absorbance 300 nm; at 38.4 µM (top of the series) unless noted.
Procedure, shortened: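 NDM-1 at 2 nM final in 50 mM HEPES pH 7.0, 1 uM ZnSO4, 0.01% Tween20, preincubated >30 min with compound. Meropenem 50 uM final added; absorbance at 300 nm after 30 min.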
Note: % of control where 0% means no effect.

Protein sequences, listed by entry. Tags and fused reporters are not part of them. Lines headed by an entry give the natural chain unless they say otherwise; changes in a name come on top.
UniProt C7C422: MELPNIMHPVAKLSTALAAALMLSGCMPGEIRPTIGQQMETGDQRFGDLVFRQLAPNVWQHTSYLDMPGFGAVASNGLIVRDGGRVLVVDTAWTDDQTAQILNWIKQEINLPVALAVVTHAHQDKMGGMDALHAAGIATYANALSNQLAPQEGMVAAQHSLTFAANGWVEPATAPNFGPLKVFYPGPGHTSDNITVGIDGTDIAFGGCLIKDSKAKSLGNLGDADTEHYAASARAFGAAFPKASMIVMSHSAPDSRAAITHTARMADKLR

Compound | activity % (negative = inhibition)
Cc1nc(C)c(C(=O)N2CCC3(CC2)NC(=O)CC3C(=O)O)s1 (stereo unspecified) | inactive: 0.0592%
COc1cc(CNC(=O)c2nc(C(O)c3ccccn3)oc2C)cc(OC)c1 (stereo unspecified) | inactive: 48.7% [at 57.5 µM]
Cc1cc(Cl)ccc1OCC(=O)N[C@@H]1CCOC[C@H]1OCC(=O)O | inactive: 12.4%
CCN(CC)c1cc(CCC(=O)NCc2cc(F)ccc2F)ccn1 | inactive: 4.01%
CCN(CC)c1cc(CCC(=O)N2CCC(C)CC2)ccn1 | inactive: 12%
CN(CCCNC(=O)C1(CCO)CC12CCOCC2)C1CCCCC1 (stereo unspecified) | inactive: 4.09%
Cc1cnc(C(=O)NC2C[C@H]3CC[C@@H](C2)N3S(=O)(=O)c2ccc(C)c(F)c2)cn1 (stereo partly specified) | inactive: 10%
CC(=O)Nc1ccc(CN2CC(Oc3ccc4c(c3)OCO4)C2)cc1 | inactive: 4.48%
C=CCOc1c(OC)ccc2c1CN(Cc1ccccc1)C(=O)CCN2CC(O)COc1ccc(OC)cc1 (stereo unspecified) | inactive: -0.982%
O=C(C1CCCN1[S+](=O)([O-])c1cccc(C(F)(F)F)c1)N1CCC(N2Cc3cccn3C2=O)CC1 (stereo unspecified) | inactive: 7.5%
CCS(=O)(=O)N1CCC(CCOC)(NC(=O)C2CC2)CC1 | inactive: 9.08%
Cc1cc(CN2CCc3nn(C)c(=O)n3CC2)n(C)n1 | inactive: 0.0396%
COCCC1(NC(=O)c2ccccc2)CCN(C(=O)c2ocnc2C)CC1 | inactive: -2.57%
O=C(c1ccc2c(c1)OCCO2)N1CCc2[nH]nc(-c3ccccc3F)c2C1 | inactive: 1.12%
CC(C)c1ccc(CC(=O)N2CCCc3ncc(C(=O)NCCc4c[nH]c5ccccc45)cc32)cc1 | inactive: 13.3%
CCN(CC)Cc1cc(C2CC(=O)Nc3n[nH]c(C(=O)O)c32)ccc1OC (stereo unspecified) | inactive: -4.59%
C=CCCC(=O)N1CCOc2c(O)cc(-c3nc4ccccc4s3)cc2C1 | inactive: 8.94%
COc1ccccc1C(=O)N1CCC(Cc2nncn2-c2ccccc2)CC1 | inactive: 14.6%
CN1CCN(C(=O)c2cc(C3CC3)[nH]n2)CC12CCNC(=O)CC2 (stereo unspecified) | inactive: 22.2%
CCN1c2cc(C(=O)Nc3cccc(F)c3)ccc2C(=O)N2CCCC21 (stereo unspecified) | inactive: 54.4%
CNC(=O)c1cc(C)nc2onc(C3CCCN(C(=O)Cc4ccc(OC)cc4)C3)c12 (stereo unspecified) | inactive: 14.1%
O=C(NCc1ccon1)C1CCCN(C2CCN(c3nc4ccccc4o3)CC2)C1 (stereo unspecified) | inactive: -11.1%

Compound | activity % (negative = inhibition)
Cc1ccc(NC(=O)CCNc2c(C)nc3cnccn23)c(F)c1 | inactive: 0.642%
CC(=O)NCC(=O)N1Cc2ccccc2CC2(CCN(CC3CCCCC3)C2)C1 (stereo unspecified) | inactive: -4.27%
CC(C)C(=O)N1CCC(CCOc2ccc(F)cc2)C1 (stereo unspecified) | inactive: -8.63%
COCCCN1CC2(CCC1=O)CCN(C(=O)Nc1ccccc1F)CC2 | inactive: -0.277%
Cn1cccc1CN1CCC2(CC1)COc1ccccc1[S+](=O)([O-])N2 | inactive: 3.93%
CCOC(=O)C1(Cc2ccccc2F)CCCN(C(=O)c2ccc3c(c2)OCCO3)C1 (stereo unspecified) | inactive: -0.209%
COc1cncc(Nc2cnc3ccc(N(C)Cc4ccc(F)cc4)nn23)c1 | inactive: 28.1% [at 57.5 µM]
COc1cc(C(=O)N2CCC(Cc3nc(C(C)C)no3)CC2)cc(OC)c1OC | inactive: -1.34%
CNC(=O)N1CCC(C2CCN(C(=O)c3cccs3)C2)CC1 (stereo unspecified) | inactive: -2.22%
O=C1Nc2ccccc2CC12CCCN2Cc1ccccc1 (stereo unspecified) | inactive: 11.6% [at 57.5 µM]
OC(COc1ccccc1CNCC1CCOCC1)CN1CCSCC1 (stereo unspecified) | inactive: -4.61%
COCCN1CC(c2n[nH]c(C3CCOCC3)n2)CCC1=O (stereo unspecified) | inactive: 50%
Cc1ccc(C(=O)N2CC[C@@](C)(O)[C@@H](Cc3ccccc3)C2)cc1C | inactive: -3.8%
Cn1cnc(S(=O)(=O)N2C[C@@H](Oc3ccccc3)C[C@H]2C(=O)N2CCOCC2)c1 | inactive: -1.42%
O=C(Cc1ccc(F)cc1)NC1CCN(c2cc(-c3ccccc3)[nH]n2)CC1 | inactive: 1.4%
COc1cccc(-c2ccc(C(=O)NCCNC(=O)c3ccccc3OC)cc2)c1 | inactive: 14.2%
Cc1cc2c(c(=O)n(-c3ccc(F)cc3)c(=O)n2CC(=O)Nc2cccc(C#N)c2)n1C | inactive: 7.14%
CN1c2cccnc2CN(C(=O)Nc2cccc(C(F)(F)F)c2)CC[C@H]1CO | inactive: -5.29% [at 57.5 µM]
Cc1nc(NCCC2CCOC2)c2c(C)nn(C)c2n1 (stereo unspecified) | inactive: 6.1%
O=c1[nH]nc2n1CCC(NS(=O)(=O)c1ccc(Cl)s1)CC2 (stereo unspecified) | inactive: -1.87%
c1coc(-c2noc(CN3CCCC3c3nc(-c4ccncc4)no3)n2)c1 (stereo unspecified) | inactive: 2.62%
COc1ccc(CN2CCCC3(C2)C(=NC2CCCCC2)NC(=O)N3c2cccnc2)cc1 (stereo unspecified) | inactive: 6.19%

Compound | activity % (negative = inhibition)
CCCNC(=O)CCc1ccnc(N2CCCC2)c1 | inactive: 20.6%
Cc1cn(CC(=O)N[C@@H]2COCC[C@@H]2OCC2CC2)c(=O)[nH]c1=O | inactive: 2.08%
COc1cc2c(cc1NS(C)(=O)=O)C(c1cccc3c1OCO3)CC(=O)N2 (stereo unspecified) | inactive: 0.737%
CCn1cc(C(=O)N2CCc3cc(S(=O)(=O)NCC4CCCO4)ccc3C2)cn1 (stereo unspecified) | inactive: 1.64%
CC(C)CCN1CC(C(=O)NCCc2ccncc2)C2(CCOCC2)C1 (stereo unspecified) | inactive: 1.09%
COc1ccc(Cn2c(C3CCN(C(=O)C4(c5ccccc5)CC4)CC3)n[nH]c2=O)cc1 | inactive: -0.839%
CNC(=O)c1cc(C2CC2)nc2onc(C3CCN([S+](=O)([O-])c4ccccc4)C3)c12 (stereo unspecified) | inactive: 31.7%
Cc1ccc(F)c(C(=O)NC(C)c2cnn(-c3ccccc3)c2C)c1Cl (stereo unspecified) | inactive: -3.38%
CCC[C@@H]1CN(C(=O)CNS(=O)(=O)c2cccs2)C[C@H]1NC(C)=O | inactive: 0.587%
F[C@@H]1CN(C2CCC2)C[C@@H]1OCc1nc2ncccc2[nH]1 | inactive: 11.3% [at 77.1 µM]
COc1cccc(-c2cccc(C(=O)N3C[C@H](CO)C[C@H](CN(C)C)C3)c2)c1 | inactive: 1.81%
Cc1ccc(S(=O)(=O)N2CCc3nc(N(C)Cc4cccnc4)[nH]c(=O)c3CC2)cc1 | inactive: 27.5%
COc1ccc(-c2noc(-c3cccn3CC(=O)NC(C)C)n2)cc1F | inactive: 0.713%
CCc1noc(-c2cn(C3CCN(C(=O)Cc4cccc(OC)c4)CC3)nn2)n1 | inactive: 2.68%
CCN(CC1CCN(CCc2ccccc2C)CC1)C(=O)c1csc(C)n1 | inactive: -2.71%
COc1ccc(CN2C(=O)O[C@@H]3CN(c4nc(C)cc(C)n4)C[C@@H]32)cc1OC | inactive: 3.49%
COCCOC1CCOC2(CCN(C(=O)c3cnccn3)CC2)C1 (stereo unspecified) | inactive: -0.664%
c1cc(-c2noc([C@@H]3CCCN3Cc3ncc[nH]3)n2)cc(N2CCCC2)n1 | inactive: -4.89% [at 57.5 µM]
COCC(=O)N[C@H]1C[C@H]2C(=O)NC[C@@H](CCC(=O)N3CCN(c4ccccc4)CC3)N2C1 | inactive: 0.0438%
Cc1noc(C)c1CN1CCC2(CC1)C(C(=O)O)CC(=O)N2C (stereo unspecified) | inactive: 0.497%
CN(C)C[C@@H]1CN(C)C[C@H]1NC(=O)c1cnccn1 | inactive: 3.3%
CCCNC(=O)C1N(c2ccc(OC)cc2)C(=O)C12CCCCC2 (stereo unspecified) | inactive: -11.9%

Compound | activity % (negative = inhibition)
CN(C)c1cccc(C(=O)NC2CCN(c3cc(-c4cccs4)[nH]n3)C2)c1 (stereo unspecified) | inactive: -5.08%
COc1ccc([C@@H]2CN(C(=O)CCc3ccsc3)C[C@H]2N(C)C)cc1 | inactive: 1.58%
COc1cccc(CCC(=O)N2CCCCC2c2nc(-c3ccncc3)n[nH]2)c1 (stereo unspecified) | inactive: -0.798%
O=C(CSc1ccncc1)N1CCN2C(=O)N(Cc3ccccc3)C(=O)[C@H]2C1 | inactive: 4.04% [at 57.5 µM]
O=C(O)[C@H]1C[C@H](C(=O)NCc2ccncc2)CN(C(=O)C2CCCC2)C1 | inactive: -1.7%
Cc1ccc(NC(=O)[C@@H]2OCC(=O)N(C)[C@H]2c2ccccc2)cc1 | inactive: -3.48%
CCNC(=O)N1CCCC(Cc2noc(-c3ccccc3)n2)C1 (stereo unspecified) | inactive: 2.94%
COCC1CN(C(C)=O)CC12CCN(C(=O)CC1CCCCC1)CC2 (stereo unspecified) | inactive: -1.78%
Cc1noc(-c2cccs2)c1C(=O)NCCC(c1ccccc1)c1ccccc1 | inactive: 13.3%
CN(CCO)C[C@@H]1CN(C(=O)CCc2nc3ccc(F)cc3[nH]2)C[C@@H]1CO | inactive: 5.44%
COc1cccc(CNC(=O)[C@@H]2C[C@@H](O)CN2C2CCN(C(=O)Cc3c[nH]c4ccccc34)CC2)c1 | inactive: 9.47%
O=C(c1ccccc1-c1ncc[nH]1)N1CCOC(Cc2cccc(F)c2)C1 (stereo unspecified) | inactive: -18%
O=C(Cn1cccc1-c1nc(-c2ccc(F)cc2)no1)NCc1ccccc1Cl | inactive: -2.31%
CS(=O)(=O)N1CCCN(C(=O)CCCc2ccccc2)c2ccccc21 | inactive: 6.41%
COCCCNC(=O)N1CCCC(c2[nH]ccc2C(N)=O)C1 (stereo unspecified) | inactive: -1.34%
O=C(Cn1nc2c(cc1=O)CCCCC2)Nc1nnc(C2CCCO2)s1 (stereo unspecified) | inactive: 0.986%
CCC1Oc2ccc(NC(=O)Cc3ccc(OC)cc3)cc2CN(Cc2ccc3c(c2)OCO3)C1=O (stereo unspecified) | inactive: 10.5%
COCC(=O)N[C@@H]1CCC[C@@H](C(=O)NC2CC2)CC(=O)N(C)C1 | inactive: 0.266% [at 57.5 µM]
COc1ccc(C)cc1NC(=O)CCC[C@@H]1[C@H]2CCCN3CCC[C@@H](CN1Cc1cccnc1)[C@@H]23 | inactive: -2.09%
COc1ccc([C@@H](NC(=O)c2coc3ccccc23)C2CC(O)C2)cn1 (stereo partly specified) | inactive: 0.545%

4 compounds picked at random from those above, as already listed:
Compound | activity % (negative = inhibition)
CN(CCO)C[C@@H]1CN(C(=O)CCc2nc3ccc(F)cc3[nH]2)C[C@@H]1CO | inactive: 5.44%
O=C(O)[C@H]1C[C@H](C(=O)NCc2ccncc2)CN(C(=O)C2CCCC2)C1 | inactive: -1.7%
O=C(Cn1cccc1-c1nc(-c2ccc(F)cc2)no1)NCc1ccccc1Cl | inactive: -2.31%
COc1ccc([C@@H](NC(=O)c2coc3ccccc23)C2CC(O)C2)cn1 (stereo partly specified) | inactive: 0.545%
